Results are given in words; binding and its absence hold for the method and conditions named. Binding seen in cells or lysates may run through a third protein. Here binding means that the protein was enriched with, or labelled near, the bait; the list need not be complete.
target: T1, HORMAD1 (human (endogenous in A549 and H1395)) (UniProt Q86X24); test: affinity purification with mass spectrometry; endogenous HORMAD1 immunoprecipitated from A549 and H1395 lysates (nondenaturing lysis buffer: 50 mM Hepes pH 7.4, 150 mM NaCl, 1.0% Triton X-100, 0.5% sodium deoxycholate), Protein A/G agarose, overnight at 4 °C; SDS-PAGE, in-gel digestion, nano-HPLC …
T1 sequence: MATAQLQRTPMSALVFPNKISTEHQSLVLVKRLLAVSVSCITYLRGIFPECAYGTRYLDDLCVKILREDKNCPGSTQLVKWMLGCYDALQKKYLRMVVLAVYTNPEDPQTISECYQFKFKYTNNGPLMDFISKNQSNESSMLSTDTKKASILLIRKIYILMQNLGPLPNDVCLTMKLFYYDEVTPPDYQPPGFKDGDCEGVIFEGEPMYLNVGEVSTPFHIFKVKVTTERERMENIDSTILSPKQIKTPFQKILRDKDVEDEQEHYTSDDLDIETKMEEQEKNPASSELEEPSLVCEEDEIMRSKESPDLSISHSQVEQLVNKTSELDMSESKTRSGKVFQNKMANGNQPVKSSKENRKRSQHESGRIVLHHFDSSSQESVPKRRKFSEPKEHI

Chains of the proteins cited; added tags and fusions are not shown.
UniProt Q96QE3: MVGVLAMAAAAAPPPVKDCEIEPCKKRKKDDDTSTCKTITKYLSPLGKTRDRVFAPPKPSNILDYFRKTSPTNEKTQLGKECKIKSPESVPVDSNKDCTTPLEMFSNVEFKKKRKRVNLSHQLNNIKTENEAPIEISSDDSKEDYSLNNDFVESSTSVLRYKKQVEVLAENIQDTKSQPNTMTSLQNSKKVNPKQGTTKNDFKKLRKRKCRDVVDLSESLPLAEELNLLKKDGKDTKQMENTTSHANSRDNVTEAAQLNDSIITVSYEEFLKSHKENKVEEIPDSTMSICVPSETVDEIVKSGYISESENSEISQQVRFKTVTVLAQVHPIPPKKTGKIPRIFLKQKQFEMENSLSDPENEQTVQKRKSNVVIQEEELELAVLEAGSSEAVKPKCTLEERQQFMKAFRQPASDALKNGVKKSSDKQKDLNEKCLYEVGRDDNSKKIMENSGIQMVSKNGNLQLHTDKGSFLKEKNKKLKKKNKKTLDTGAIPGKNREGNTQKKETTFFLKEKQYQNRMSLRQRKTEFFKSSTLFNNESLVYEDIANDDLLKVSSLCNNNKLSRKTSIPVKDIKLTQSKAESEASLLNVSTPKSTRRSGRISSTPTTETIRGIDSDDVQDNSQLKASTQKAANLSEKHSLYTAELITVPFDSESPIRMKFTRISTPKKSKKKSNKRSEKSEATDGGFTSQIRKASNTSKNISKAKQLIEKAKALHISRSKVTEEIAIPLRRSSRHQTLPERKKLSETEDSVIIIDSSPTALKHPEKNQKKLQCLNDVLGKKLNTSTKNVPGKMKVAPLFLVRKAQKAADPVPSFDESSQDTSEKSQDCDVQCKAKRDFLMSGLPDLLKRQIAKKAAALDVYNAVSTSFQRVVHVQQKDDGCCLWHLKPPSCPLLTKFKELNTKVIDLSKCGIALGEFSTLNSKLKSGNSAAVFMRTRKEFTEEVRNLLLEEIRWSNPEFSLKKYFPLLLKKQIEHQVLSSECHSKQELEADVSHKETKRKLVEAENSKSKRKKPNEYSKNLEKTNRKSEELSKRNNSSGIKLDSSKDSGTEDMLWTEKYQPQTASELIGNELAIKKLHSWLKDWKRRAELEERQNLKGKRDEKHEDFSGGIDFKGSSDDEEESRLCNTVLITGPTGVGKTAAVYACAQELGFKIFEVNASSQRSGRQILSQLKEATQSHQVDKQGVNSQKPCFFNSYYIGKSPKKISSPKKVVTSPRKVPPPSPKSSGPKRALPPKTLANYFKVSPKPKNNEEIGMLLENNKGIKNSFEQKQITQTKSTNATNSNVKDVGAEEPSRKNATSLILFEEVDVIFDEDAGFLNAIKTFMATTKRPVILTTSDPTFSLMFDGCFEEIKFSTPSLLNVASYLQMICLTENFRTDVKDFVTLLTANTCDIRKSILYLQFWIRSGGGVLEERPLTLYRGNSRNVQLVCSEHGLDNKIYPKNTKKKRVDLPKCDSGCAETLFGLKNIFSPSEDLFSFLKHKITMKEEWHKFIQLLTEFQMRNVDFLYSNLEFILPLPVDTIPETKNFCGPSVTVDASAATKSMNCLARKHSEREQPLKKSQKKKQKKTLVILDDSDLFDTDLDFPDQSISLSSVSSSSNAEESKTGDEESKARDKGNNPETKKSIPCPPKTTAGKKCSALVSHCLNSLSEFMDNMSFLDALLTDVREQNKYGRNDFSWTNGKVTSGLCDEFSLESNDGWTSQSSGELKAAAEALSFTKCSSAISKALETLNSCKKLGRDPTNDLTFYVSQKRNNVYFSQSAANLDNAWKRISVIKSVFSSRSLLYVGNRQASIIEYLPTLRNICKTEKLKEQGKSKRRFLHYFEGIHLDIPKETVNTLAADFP
UniProt P09874: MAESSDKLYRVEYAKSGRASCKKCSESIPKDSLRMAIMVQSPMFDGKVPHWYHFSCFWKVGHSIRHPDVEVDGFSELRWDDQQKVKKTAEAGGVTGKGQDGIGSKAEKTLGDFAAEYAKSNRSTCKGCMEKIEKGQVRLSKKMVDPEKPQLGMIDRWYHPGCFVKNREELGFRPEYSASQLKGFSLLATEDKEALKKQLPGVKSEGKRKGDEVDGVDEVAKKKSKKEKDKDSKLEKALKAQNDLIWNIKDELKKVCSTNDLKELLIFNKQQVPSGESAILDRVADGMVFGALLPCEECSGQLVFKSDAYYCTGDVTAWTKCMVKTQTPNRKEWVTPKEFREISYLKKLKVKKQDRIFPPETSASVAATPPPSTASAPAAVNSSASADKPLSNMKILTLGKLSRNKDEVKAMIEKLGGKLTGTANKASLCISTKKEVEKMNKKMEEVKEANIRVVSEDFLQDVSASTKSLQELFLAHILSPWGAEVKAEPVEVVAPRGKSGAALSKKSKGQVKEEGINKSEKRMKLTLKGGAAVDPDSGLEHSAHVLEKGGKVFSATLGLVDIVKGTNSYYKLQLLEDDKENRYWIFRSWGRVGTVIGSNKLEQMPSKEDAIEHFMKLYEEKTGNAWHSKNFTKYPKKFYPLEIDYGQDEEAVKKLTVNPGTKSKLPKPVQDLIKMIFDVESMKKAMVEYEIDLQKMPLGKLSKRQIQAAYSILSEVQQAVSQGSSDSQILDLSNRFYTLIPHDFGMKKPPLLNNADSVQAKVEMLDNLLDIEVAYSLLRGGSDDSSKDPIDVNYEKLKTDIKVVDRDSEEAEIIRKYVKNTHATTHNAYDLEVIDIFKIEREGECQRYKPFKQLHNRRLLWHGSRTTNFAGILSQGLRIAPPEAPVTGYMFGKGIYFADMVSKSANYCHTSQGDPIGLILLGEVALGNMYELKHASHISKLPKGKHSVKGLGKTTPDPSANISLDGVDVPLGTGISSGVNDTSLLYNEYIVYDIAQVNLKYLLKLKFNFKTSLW
UniProt P12004: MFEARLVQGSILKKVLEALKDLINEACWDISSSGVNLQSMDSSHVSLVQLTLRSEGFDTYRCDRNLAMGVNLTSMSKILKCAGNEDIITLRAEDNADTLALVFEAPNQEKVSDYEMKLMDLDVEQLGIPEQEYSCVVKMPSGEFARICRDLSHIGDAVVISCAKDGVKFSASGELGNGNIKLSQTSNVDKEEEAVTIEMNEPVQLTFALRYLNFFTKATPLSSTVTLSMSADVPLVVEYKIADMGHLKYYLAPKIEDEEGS
UniProt P40938: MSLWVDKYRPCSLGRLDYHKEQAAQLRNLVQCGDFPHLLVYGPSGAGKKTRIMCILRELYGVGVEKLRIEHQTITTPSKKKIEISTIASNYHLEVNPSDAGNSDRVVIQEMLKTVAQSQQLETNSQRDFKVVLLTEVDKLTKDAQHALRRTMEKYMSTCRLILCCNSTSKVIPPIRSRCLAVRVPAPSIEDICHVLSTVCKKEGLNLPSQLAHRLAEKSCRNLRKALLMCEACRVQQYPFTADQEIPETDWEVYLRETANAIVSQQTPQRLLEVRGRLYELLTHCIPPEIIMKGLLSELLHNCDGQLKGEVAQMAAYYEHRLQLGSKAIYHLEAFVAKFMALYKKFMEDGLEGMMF
UniProt P35249: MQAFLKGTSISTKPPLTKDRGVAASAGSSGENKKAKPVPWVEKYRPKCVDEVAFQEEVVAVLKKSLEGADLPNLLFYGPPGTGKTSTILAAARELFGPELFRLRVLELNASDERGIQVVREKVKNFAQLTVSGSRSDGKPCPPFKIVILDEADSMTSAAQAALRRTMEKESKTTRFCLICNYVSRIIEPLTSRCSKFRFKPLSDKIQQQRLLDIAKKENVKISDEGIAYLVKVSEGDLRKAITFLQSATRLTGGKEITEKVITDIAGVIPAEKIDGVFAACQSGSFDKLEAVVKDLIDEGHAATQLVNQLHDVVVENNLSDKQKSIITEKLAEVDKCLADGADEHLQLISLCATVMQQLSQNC

Substance	binding
ATAD5 (from UniProt Q96QE3 1-1844)	binds
PARP1 (from UniProt P09874 1-1014)	binds
PCNA (from UniProt P12004 1-261)	binds
RFC3 (from UniProt P40938 1-356)	binds
RFC4 (from UniProt P35249 1-363)	binds
